Data on two substances can be found in article PMC4838943.

Chains of the proteins cited; added tags and fusions are not shown. Residues count along the entry.
UniProt P16144, residues 28-1822: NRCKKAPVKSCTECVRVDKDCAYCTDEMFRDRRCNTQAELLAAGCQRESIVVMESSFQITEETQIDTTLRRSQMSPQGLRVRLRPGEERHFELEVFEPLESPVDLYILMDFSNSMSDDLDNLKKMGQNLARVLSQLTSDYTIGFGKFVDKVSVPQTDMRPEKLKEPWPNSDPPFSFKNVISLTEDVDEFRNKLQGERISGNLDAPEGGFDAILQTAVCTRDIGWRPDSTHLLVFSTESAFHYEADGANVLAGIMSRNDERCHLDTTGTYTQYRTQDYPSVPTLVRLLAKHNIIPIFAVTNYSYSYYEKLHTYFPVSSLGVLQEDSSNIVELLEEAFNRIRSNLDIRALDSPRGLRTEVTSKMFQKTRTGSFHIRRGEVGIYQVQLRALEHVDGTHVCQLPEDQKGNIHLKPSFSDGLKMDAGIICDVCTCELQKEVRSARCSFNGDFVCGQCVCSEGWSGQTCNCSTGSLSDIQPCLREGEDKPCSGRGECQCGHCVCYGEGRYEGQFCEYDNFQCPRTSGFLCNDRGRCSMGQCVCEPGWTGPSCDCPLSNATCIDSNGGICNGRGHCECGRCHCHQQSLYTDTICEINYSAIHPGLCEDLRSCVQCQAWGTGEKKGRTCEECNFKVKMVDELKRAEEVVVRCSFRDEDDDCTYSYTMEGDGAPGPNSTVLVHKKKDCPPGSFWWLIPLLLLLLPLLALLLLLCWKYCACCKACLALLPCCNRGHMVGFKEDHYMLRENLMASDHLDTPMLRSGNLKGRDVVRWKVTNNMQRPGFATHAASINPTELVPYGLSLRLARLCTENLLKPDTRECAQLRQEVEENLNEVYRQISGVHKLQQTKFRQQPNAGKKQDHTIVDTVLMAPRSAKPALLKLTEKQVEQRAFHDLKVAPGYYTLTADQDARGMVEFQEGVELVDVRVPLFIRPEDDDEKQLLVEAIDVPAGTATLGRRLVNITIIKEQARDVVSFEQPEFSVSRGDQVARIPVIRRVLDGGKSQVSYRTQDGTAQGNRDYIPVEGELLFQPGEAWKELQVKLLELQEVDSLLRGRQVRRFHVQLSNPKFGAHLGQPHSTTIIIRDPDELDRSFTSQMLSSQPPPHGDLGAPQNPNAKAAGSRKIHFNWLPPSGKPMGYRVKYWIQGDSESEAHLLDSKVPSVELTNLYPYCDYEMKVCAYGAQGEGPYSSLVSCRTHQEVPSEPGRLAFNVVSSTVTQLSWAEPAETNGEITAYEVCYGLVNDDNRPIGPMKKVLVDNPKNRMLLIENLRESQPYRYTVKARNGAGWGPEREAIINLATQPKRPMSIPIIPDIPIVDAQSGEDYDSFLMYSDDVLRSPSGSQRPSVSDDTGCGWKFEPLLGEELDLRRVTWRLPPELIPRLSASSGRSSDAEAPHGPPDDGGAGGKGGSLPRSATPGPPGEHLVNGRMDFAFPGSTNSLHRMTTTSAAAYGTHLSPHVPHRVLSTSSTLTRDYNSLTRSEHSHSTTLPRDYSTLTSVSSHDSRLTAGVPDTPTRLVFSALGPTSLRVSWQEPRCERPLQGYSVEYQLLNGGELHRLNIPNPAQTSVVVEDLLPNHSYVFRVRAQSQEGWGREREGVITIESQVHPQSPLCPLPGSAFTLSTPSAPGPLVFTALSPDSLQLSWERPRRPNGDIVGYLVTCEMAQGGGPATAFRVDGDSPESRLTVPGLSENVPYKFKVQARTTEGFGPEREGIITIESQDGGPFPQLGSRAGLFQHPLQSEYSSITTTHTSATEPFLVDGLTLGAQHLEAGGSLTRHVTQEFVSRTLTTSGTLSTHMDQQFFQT
UniProt P06731, residues 35-685: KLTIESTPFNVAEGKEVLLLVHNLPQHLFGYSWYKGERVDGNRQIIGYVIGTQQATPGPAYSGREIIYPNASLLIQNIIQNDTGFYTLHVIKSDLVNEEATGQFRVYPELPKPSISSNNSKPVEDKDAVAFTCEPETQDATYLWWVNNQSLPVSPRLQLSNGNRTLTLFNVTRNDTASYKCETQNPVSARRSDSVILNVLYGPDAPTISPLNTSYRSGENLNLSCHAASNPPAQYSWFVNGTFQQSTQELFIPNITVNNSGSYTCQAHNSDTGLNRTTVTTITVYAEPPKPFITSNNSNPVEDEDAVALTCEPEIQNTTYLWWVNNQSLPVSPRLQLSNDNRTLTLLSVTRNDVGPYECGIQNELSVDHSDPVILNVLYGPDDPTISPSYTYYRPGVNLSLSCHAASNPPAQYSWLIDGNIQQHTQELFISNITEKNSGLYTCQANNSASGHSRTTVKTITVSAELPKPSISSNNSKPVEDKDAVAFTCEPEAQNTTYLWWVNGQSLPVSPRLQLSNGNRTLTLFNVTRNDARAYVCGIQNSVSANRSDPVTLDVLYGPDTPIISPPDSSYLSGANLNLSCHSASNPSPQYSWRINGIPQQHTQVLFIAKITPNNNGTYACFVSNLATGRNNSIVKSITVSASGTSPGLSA
UniProt P40199, residues 35-320: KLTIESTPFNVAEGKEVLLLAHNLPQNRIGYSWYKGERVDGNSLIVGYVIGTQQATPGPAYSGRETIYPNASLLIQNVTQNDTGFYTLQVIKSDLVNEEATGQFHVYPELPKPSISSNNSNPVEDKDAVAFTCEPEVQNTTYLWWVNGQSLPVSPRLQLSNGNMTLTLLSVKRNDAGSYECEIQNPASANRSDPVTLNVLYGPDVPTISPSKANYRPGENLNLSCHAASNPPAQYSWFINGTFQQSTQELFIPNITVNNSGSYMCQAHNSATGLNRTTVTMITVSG

The target in the test is integrin β4 (human (endogenous in C45 CTOSs)) (UniProt P16144). The test can be described thus: co-IP; floating cultured C45 CTOSs lysed in TNE-T buffer (10 mM Tris-HCl pH 7.4, 1 mM EDTA, 150 mM NaCl, 1% Triton); lysate with antibodies at 4 °C overnight, protein G sepharose; Western blot.

These are yes or no findings as the source states them, for the method shown. Binding seen in cells or lysates may run through a third protein.

Consider CEACAM5 (from UniProt P06731 35-685), for which the binding result was “no binding”.
With CEACAM6 (from UniProt P40199 35-320) the entry was “no binding”.
